# Measured values: PubChem BioAssay AID1259354 (Paczesny and Yang Labs, IUPUI and University of Michigan, 2018)
# Protein sequences, listed by entry. Tags and fused reporters are not part of them. Lines headed by an entry give the natural chain unless they say otherwise; changes in a name come on top.
# UniProt Q01638: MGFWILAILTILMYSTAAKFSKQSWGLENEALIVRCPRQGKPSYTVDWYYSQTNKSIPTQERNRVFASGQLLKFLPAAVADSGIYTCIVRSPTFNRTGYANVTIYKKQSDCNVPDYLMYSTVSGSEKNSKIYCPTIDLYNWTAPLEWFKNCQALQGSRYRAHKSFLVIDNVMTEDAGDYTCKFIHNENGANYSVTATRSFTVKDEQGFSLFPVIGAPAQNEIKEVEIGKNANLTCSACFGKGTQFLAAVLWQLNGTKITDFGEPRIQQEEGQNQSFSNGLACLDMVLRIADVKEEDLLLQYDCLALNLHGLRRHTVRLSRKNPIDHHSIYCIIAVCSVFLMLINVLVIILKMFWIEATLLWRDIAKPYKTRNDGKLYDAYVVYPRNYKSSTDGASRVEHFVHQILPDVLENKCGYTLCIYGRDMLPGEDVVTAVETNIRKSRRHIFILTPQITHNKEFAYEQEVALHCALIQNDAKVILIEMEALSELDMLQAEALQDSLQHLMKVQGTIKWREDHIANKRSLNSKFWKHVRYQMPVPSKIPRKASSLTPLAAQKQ
# In all, about 78,000 compounds went through this assay and about 1,800 (2.3%) were called active. This list was built around the results that the source calls inconclusive (neither active nor inactive); the mix of calls is not that of the screen. Rule as the data show it: active = inhibition above about 30%; inconclusive = mostly about 10% to 28%; inactive = weaker than that.
# Biological target: Interleukin-1 receptor-like 1 (Homo sapiens) (UniProt Q01638)
# Assay: blocks human ST2 binding to IL-33, primary screen, biochemical, AlphaLISA (AID 1259354)
# Details: AlphaLISA ST2-Fc/biotin-IL-33 interaction, 1 h; at 17 µM, hits give high values
row,SMILES,inhibition
1,CCOc1ccc(N(CC(=O)N2CCOCC2)S(=O)(=O)c2ccc(OC)c(OC)c2)cc1,inactive
2,CCN(C(=O)c1ccc(OC(F)F)cc1)C(C)CO (centres undefined),inconclusive: 12%
3,CCCCOC(=O)CSC1=C(C#N)C(c2cccc(Cl)c2)CC(=O)N1 (centres undefined),inconclusive: 13%
4,COc1[nH]c2ccc(F)cc2c1C(=O)OCC1CCN(CCNS(C)(=O)=O)CC1,inconclusive: 23%
5,CC1CCCCC1NS(=O)(=O)c1cc(Br)cc2c1N(C(=O)C1CC1)CC2 (centres undefined),inactive
6,CN1CCCn2nc(C(=O)N[C@H]3COC[C@@H]3N3CCOCC3)cc2C1,inconclusive: 16%
7,O=C1CC(C(=O)N2Cc3cnn(CCO)c3C2)c2ccccc21 (centres undefined),inactive
8,CCOc1ccc(C(=O)Nc2c3c(nn2-c2ccc(OC)cc2)CS(=O)C3)cc1 (centres undefined),inactive
9,CC(C)c1ccc(CN2CCOCC2)cc1,inactive
10,COc1ccc(-n2nnnc2C2(Nc3cccc(Cl)c3)CCCCC2)cc1,inactive
11,Cc1ccc(N2C(=O)C3C4c5ccccc5C(CO)(c5ccccc54)C3C2=O)cc1[N+](=O)[O-] (centres undefined),inconclusive: 24%
12,O=C(CC1COCCN1)N1CCN(c2ncccn2)CC1 (centres undefined),inconclusive: 11%
13,CCc1ccc(N2CSC3=C(C#N)C(c4ccccc4)CC(=O)N3C2)cc1 (centres undefined),inconclusive: 14%
14,C=CCOc1ccc(C=Nc2ccc(Cl)cc2)c(O)c1,inconclusive: 15%
15,Cc1ccc(CN2C(=O)CSc3ccc(C(=O)NCCCN4CCOCC4)cc32)cc1,inactive
16,O=C(CCSc1nc2ccccc2o1)Nc1ccccc1Br,inactive
17,Cc1cc(C(F)(F)F)n2ncc(C(=O)N3CC[C@@H]4CC[C@H](C3)N4C)c2n1,inconclusive: 10%
18,O=S(=O)(c1ccc(F)cc1)c1ccc(-c2ccccc2)cc1,inactive
19,COc1ccccc1Cc1nc(-c2cccc([N+](=O)[O-])c2)no1,active: 32%
20,O=c1c(NS(=O)(=O)c2cccc(F)c2)ccc2n1C[C@H]1C[C@@H]2CN(S(=O)(=O)c2cccs2)C1,active: 44%
21,O=C1[C@@H]2C3c4ccccc4C(Br)(c4ccccc43)[C@@H]2C(=O)N1c1ccc([N+](=O)[O-])cc1,active: 34%
22,Brc1ccc(Nc2nc(-c3ccccn3)cs2)cc1,inactive
23,Cc1cc(C(=O)N2CC[C@H](O)[C@@H](O)C2)ccc1-n1cccc1,inconclusive: 14%
24,COc1cc(/C=C2/C(=O)NN(c3ccc(C)c(Cl)c3)C2=O)cc(Br)c1O,inconclusive: 13%

row,SMILES,inhibition
1,COc1cc(NS(=O)(=O)c2ccc(NC(=O)c3ccc(Cl)cc3)cc2)nc(OC)n1,inactive
2,FC(F)(F)c1cc(-c2ccc(Cl)cc2)nc(NCc2ccco2)n1,inactive
3,CCN(CC)/C(=C/C(=O)c1cccc([N+](=O)[O-])c1)c1ccccc1,inconclusive: 24%
4,COc1ccccc1Oc1ncccc1CNC(=O)c1cc(C)oc1C,inconclusive: 17%
5,CC1CCCC(C)N1C(=O)c1cc2n(n1)C(C(F)(F)F)CC(c1ccc(Cl)cc1)N2 (centres undefined),inconclusive: 12%
6,CC(C)c1ccc(N2C(=O)CC(N3CCN(Cc4ccc5c(c4)OCO5)CC3)C2=O)cc1 (centres undefined),inconclusive: 15%
7,O=C(CCc1ccccc1)Nc1ccnn1C1CCN(CC2CC=CCC2)CC1 (centres undefined),inconclusive: 13%
8,N#C/C(=C\c1ccco1)c1nc(-c2ccc(-c3ccccc3)cc2)cs1,inconclusive: 25%
9,CSc1nnc2sc3ccccc3n12,inactive
10,O=C(Nc1ccc(F)cc1)c1c[nH]c(=O)n(-c2ccccc2)c1=O,inactive
11,Cc1ccc2nsnc2c1S(=O)(=O)Nc1cccc(C(=O)O)c1,inconclusive: 16%
12,Cc1nc2c(sc3nc4c(cc32)COC(C)(C)C4)c(=O)n1CC(C)C,inactive
13,O=C(Nc1cnn(Cc2ccc(F)cc2)c1)c1cc(-c2ccc(Cl)cc2)on1,inconclusive: 13%
14,O=Cc1ccccc1OCc1ccccc1,inconclusive: 12%
15,Cc1ccc(NC(=O)CC(=O)NCC2CCS(=O)(=O)C2)c(C)c1 (centres undefined),inactive
16,c1cncc(COC2CCN(Cc3ccc(C4CCCCO4)o3)CC2)c1 (centres undefined),inconclusive: 26%
17,O=C1CCC(C(=O)N2CCC(Cn3ccnc3)CC2)CN1CCCN1CCOCC1 (centres undefined),inactive
18,N#CC1=C(N)Oc2cc(O)ccc2C1c1ccc(-c2ccccc2)cc1 (centres undefined),inconclusive: 10%
19,C[C@]12CC3CC(C(=O)N4CCc5sccc5C4)(C1)C[C@@](C)(C3)C2,inconclusive: 15%
20,CCNC(=O)N[C@H]1CC[C@]2(C)CC[C@@H]([C@H](C)C(=O)NC3CCCC3)[C@H](O)[C@H]2[C@@H]1C,inactive
21,Oc1ccccc1C1Oc2ccccc2C2CC(c3cccs3)=NN21 (centres undefined),inconclusive: 14%
22,Cc1cc(N(C)C)nc(Nc2ccc(NC(=O)CCC3CCCCC3)cc2)n1,inconclusive: 18%
23,CN(C)C1CCCN(C(=O)CCc2nc3cccnc3n2C)CC1 (centres undefined),inactive
24,CCN(CC)C(=O)C(=O)Nc1cc(C(=O)N(CC)CC)ccc1Cl,inconclusive: 17%

# In another format: results already given.
row	SMILES	inhibition
2	FC(F)(F)c1cc(-c2ccc(Cl)cc2)nc(NCc2ccco2)n1	inactive
3	CCN(CC)/C(=C/C(=O)c1cccc([N+](=O)[O-])c1)c1ccccc1	inconclusive: 24%
4	COc1ccccc1Oc1ncccc1CNC(=O)c1cc(C)oc1C	inconclusive: 17%

# Later entries

row,SMILES,inhibition
1,COc1ccc(C2CC(=O)C3=C(C2)Nc2ccccc2NC3c2cccs2)cc1OC (centres undefined),inactive
2,CN1CC(=O)N2C[C@@H](NC(=O)c3ccc4ncsc4c3)C[C@H]2C1=O,inactive
3,CCCCN(CC)S(=O)(=O)c1cc(Br)cc2c1N(C(=O)C1CC1)CC2,inconclusive: 11%
4,COc1ccc(-c2nccn2CCc2ccccn2)c(OC)c1,inactive
5,CCN(CCCNC(=O)c1cc2cc3ccc(Cl)cc3nc2o1)c1ccccc1,inconclusive: 12%
6,CC(=O)Nc1ccc(CN2CCC(O)(c3ccccc3C)C2)cc1 (centres undefined),inconclusive: 12%
7,Cc1ccc(NC(=O)CC(=O)NCCc2csc(C(C)C)n2)cc1,inactive
8,COc1ccccc1N1CCN(C2CCC(C)C2)CC1 (centres undefined),inactive
9,Cc1noc(CN(C)C(=O)C2CCCCN2Cc2ccccc2)n1 (centres undefined),inconclusive: 19%
10,COc1cc(/C=C2\C(=O)N(c3ccccc3)N=C2C)ccc1OCc1ccccc1,inconclusive: 13%
11,Cc1ccnc(NC(c2ccc(F)cc2)c2ccc3cccnc3c2O)c1 (centres undefined),inconclusive: 27%
12,O=C(NCCc1ccccc1)c1cc(-c2cccs2)on1,inconclusive: 15%
13,CCC(NC(=O)c1cnn(Cc2ccccc2)c1)c1ccnn1C (centres undefined),inconclusive: 10%
14,COc1ccc(/C=C(/NC(=O)c2ccco2)C(=O)Nc2cccc(Br)c2)cc1,inconclusive: 20%
15,CN1[C@@H](CCC(=O)N2CCN(c3ccccn3)CC2)CNC(=O)[C@@H]2[C@H]1CCN2Cc1ccc(CO)o1,inconclusive: 10%
16,CNC(=O)CN(C)Cc1nc(-c2ccc(OC)c3ccccc23)oc1C,inconclusive: 16%
17,Cc1c[nH]c(CN2CCC(N3CCCC(C(=O)NC4CC4)C3)CC2)c(C)c1=O (centres undefined),inconclusive: 13%
18,O=[N+]([O-])c1cccc(C2Nc3c(cccc3C(F)(F)F)C3C=CCC32)c1 (centres undefined),inconclusive: 11%
19,Cc1ccccc1OCCCCN1CCCCC1,inactive
20,COc1ccc(Nc2cc(C)nc(Nc3ccc(NC(=O)c4cccs4)cc3)n2)cc1,inconclusive: 20%
21,N#Cc1ccccc1NC(=O)c1ccc(F)cc1,inactive
22,O=C(c1ccc(CS(=O)(=O)c2ccc(Br)cc2)o1)N1CCCC1,inconclusive: 12%
23,Cc1[nH]c2ccccc2c1SCCNC(=O)/C=C/c1ccccc1,inactive
24,Cc1ccc(C(=O)C2=C(N)OC3=C(C(=O)CC(C)(C)C3)C2c2ccccc2)cc1 (centres undefined),inconclusive: 19%

row,SMILES,inhibition
1,Cc1c(C(=O)N2CCN(Cc3ccc4c(c3)OCO4)CC2)cnn1-c1nccc(-c2cccs2)n1,inconclusive: 12%
2,COc1cc(/C=C2/SC(=O)N(c3ccc(Cl)cc3)C2=O)ccc1O,inconclusive: 15%
3,COc1ccc(CN2CCN(C3C4CC5CC(C4)CC3C5)CC2CCO)c(F)c1 (centres undefined),inactive
4,O=C(O)C1CCCCC1C(=O)Nc1ccccc1Cl (centres undefined),inconclusive: 15%
5,Cc1cnc(CNC(=O)c2cc(-c3ccccc3Cl)oc2C)cn1,inconclusive: 13%
6,Cc1ccc(C(=O)Nc2ccc3oc(-c4cccnc4)nc3c2)cc1[N+](=O)[O-],inconclusive: 14%
7,Cc1cccnc1NC(=O)COc1ccc(C(C)C)cc1,inactive
8,Cc1nn(CCC(C)C)c2c1C(CCc1ccccc1)CC(=O)N2 (centres undefined),inconclusive: 10%
9,CC(C)c1ncc(C(=O)N2CCCC3(C2)C(=O)Nc2ccccc23)c(=O)[nH]1 (centres undefined),inconclusive: 26%
10,COc1ccc(NS(=O)(=O)c2ccc3c(c2)CCC(=O)N3)c(OC)c1,inconclusive: 14%
11,COc1ccccc1C1CC(c2ccc(Cl)cc2)Nc2nc(N)nn21 (centres undefined),inconclusive: 11%
12,Cc1ccc(NC2(C(=O)N(C)CC3CCCNC3)CCCC2)cc1 (centres undefined),inactive
13,CC1=C(C(=O)Nc2ccccn2)C(c2cccnc2)n2nnnc2N1 (centres undefined),inconclusive: 21%
14,NC1=NC(=O)C(CC(=O)Nc2ccc(Oc3ccc(Cl)cc3)cc2)S1 (centres undefined),inactive
15,CC(C)c1ncc(C(=O)N2CCOC(Cc3ccccc3Cl)C2)c(=O)[nH]1 (centres undefined),inactive
16,O=C(Nc1nnc(-c2ccccc2)s1)C1CCCCC1,inconclusive: 11%
17,Cc1noc(C)c1NC(=O)c1ccc(CN2CCCC2c2ccccn2)cc1 (centres undefined),inconclusive: 14%
18,Cc1ccc(CN(C)Cc2ccc3cccc(O)c3n2)o1,inconclusive: 12%
19,Cc1cc(Nc2ccccc2)nc(Nc2ccc(NC(=O)CCCc3ccccc3)cc2)n1,inconclusive: 19%
20,CC1=C(C(=O)Nc2cccnc2)C(c2ccccc2)n2nc(SCc3ccccc3)nc2N1 (centres undefined),inconclusive: 19%
21,Cc1nc(CCNC(=O)c2coc(CN3CCN(c4ccccc4F)CC3)n2)sc1C,inconclusive: 12%
22,C/C(=C\c1ccccc1)CN1CCC(O)(CO)CC1,inconclusive: 13%
